# Source: PubChem BioAssay AID1259415 (National Center for Advancing Translational Sciences (NCATS), 2018)
# Out of some 410,000 compounds screened, about 18,000 (4.4%) were called active. Cut-off read from the data, not from the text of the source: active = activity change below about -60%; inconclusive = no clear call, values can overlap the other calls; inactive = above about -39%. Inconclusive results, whose numbers are uncertain, are shown.
# Test: qHTS Assay for inhibitors of the human cytomegalovirus (HCMV)
# Conditions: HFF cells, HCMV-luciferase reporter, 72 h; at 57.5 µM; stronger effect = lower value
# Source text: NCGC Assay Overview: Infection with human cytomegalovirus (HCMV) continues to pose significant threats for pregnant women and immunocompromised hosts. HCMV causes serious morbidity and mortality in transplant recipients, and congenital HCMV is the leading infectious cause of mental retardation and deafness in children. In the 1990s, the annual costs associated with the disease burden of congenital CMV were estimated at around $2 billion. A HCMV vaccine is not available yet and HCMV therapies result in intolerable side effects and emergence of drug resistant viruses. […] Towards this goal we have developed and characterized a luciferase HCMV reporter that was initially used in 96 well plates and then optimized to 1536-well plates for utilization in screening of the MLSMR collection, the NGCG diversity collection and the NCGC Pharmaceutical Collection of approved and investigational drugs.
# NCGC Assay Protocol Summary:
# This is a cell-based assay for HCMV inhibition in HFFs cells. The screening used 2 compound doses and the HCMV-luciferase at MOI of 1 PFU/cell. Cells were treated and infected with HCMV. At 72 h post infection cell lysates were collected and luciferase activity was determined using the Glomax-Multi + Detection System (Promega, Madison, WI). Data were normalized to the controls for basal activity (buffer only) and known HCMV inhibitors Salinmoycin. […]
# % is set by controls: 0 for no effect and ±100 for the full control effect.
row,SMILES,"activity change, negative = inhibition"
1,COc1cc(/C=C2\C(=N)N3N=C(S(C)(=O)=O)SC3=NC2=O)cc(OC)c1OCCOc1cccc(C)c1,inconclusive: -45.2%
